No constants are given. Whether binding was seen depends on the method and setting. For part of these data: In cells and extracts the contact can be indirect. Some results given as binding are weak or reduced against the parent protein; the word gives no strength.

By UniProt entry, the sequences of proteins in these tests, tags left out. Residues count along the entry.
UniProt P13473, residues 29-410: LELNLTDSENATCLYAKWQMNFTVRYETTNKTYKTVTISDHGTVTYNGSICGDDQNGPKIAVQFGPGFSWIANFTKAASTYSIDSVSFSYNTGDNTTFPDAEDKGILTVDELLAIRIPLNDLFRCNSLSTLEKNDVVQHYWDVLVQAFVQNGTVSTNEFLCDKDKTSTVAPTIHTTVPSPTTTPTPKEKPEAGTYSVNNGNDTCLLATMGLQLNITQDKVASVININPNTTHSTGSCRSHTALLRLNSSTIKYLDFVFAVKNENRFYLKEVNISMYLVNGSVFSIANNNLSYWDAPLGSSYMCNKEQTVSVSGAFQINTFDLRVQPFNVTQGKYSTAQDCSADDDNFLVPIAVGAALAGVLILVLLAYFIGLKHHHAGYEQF
UniProt P35869, residues 11-848: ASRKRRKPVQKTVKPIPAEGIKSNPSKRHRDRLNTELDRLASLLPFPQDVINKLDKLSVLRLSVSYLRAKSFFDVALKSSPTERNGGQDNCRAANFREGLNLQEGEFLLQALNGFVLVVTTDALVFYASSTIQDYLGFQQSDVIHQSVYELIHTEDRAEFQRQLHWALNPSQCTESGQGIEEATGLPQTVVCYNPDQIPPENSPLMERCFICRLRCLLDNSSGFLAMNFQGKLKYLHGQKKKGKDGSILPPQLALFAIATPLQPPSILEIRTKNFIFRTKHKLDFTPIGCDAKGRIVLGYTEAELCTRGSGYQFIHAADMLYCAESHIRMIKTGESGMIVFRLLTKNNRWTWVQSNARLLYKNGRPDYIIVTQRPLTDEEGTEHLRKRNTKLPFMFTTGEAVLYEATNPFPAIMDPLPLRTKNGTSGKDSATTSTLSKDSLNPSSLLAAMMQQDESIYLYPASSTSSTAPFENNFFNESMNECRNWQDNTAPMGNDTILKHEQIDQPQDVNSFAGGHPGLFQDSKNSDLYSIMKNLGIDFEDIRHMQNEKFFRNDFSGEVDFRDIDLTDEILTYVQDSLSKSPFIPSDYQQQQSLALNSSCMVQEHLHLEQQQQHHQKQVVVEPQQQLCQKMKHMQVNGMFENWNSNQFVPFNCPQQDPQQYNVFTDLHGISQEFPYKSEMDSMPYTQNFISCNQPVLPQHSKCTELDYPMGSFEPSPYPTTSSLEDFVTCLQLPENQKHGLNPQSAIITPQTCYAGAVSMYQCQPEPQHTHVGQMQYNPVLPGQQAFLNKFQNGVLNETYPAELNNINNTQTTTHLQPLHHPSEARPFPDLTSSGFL
UniProt P27540: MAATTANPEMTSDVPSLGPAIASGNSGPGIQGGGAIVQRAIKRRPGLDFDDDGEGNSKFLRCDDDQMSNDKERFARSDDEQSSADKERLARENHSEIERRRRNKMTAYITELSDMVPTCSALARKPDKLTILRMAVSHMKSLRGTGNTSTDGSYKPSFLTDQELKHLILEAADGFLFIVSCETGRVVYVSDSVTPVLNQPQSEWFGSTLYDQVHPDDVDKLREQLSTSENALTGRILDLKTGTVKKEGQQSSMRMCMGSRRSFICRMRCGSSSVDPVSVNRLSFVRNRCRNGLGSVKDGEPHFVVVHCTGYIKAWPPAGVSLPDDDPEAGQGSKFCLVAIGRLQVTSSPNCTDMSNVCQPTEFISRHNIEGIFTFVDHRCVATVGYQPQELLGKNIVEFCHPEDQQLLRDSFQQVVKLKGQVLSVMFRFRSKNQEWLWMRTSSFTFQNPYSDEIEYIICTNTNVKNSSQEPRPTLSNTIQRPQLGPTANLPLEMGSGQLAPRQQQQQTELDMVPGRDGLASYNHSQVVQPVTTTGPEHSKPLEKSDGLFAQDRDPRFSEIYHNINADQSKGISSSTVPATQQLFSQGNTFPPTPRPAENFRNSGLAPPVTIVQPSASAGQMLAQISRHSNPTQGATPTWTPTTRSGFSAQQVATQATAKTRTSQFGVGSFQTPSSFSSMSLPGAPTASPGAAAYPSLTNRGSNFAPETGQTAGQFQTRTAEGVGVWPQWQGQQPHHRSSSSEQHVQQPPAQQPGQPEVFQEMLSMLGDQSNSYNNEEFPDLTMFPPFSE
UniProt P04406: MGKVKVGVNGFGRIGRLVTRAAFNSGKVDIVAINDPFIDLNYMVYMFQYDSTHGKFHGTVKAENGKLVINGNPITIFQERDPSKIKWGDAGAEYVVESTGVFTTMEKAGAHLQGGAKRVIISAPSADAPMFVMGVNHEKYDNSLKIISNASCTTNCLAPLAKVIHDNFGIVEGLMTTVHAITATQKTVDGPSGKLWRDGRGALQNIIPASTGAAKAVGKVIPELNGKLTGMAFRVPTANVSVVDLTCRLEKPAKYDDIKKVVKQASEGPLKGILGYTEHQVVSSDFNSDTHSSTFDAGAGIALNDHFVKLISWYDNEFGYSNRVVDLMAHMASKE
UniProt P11142: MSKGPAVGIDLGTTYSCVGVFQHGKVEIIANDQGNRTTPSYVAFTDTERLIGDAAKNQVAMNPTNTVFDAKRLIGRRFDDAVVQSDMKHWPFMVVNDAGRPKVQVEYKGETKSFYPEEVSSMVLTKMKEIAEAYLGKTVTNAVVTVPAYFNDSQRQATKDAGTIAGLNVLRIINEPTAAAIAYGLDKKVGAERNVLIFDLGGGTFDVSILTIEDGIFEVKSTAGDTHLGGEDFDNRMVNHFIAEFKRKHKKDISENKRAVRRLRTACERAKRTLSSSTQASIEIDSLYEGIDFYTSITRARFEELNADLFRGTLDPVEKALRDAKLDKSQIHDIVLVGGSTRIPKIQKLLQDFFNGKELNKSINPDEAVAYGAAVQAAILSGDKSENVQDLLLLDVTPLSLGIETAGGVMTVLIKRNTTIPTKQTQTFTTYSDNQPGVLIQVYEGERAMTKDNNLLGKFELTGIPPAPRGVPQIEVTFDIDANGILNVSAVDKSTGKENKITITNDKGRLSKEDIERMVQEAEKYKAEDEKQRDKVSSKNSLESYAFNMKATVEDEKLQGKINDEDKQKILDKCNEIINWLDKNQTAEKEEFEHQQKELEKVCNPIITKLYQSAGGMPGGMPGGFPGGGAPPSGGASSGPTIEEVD

Assay [1] concerns the target lysosomal associated membrane protein 2A (human (endogenous in MDA-MB-468)) (UniProt P13473). In words: co-IP; 2 mg whole cell lysates of MDA-MB-468 cells treated with 10 μM Q18 (0, 4, 8 h) or DMSO or 10 μM 6-AN (24 h); anti-AHR SA-210 or anti-LAMP2 antibody on protein G magnetic beads, overnight at 4 °C; washed with HEDG containing 150 mM NaCl and 0.05–0.1% Tween-20; Western blot.

The target is the same in assay [2]. In words: condition: only cells treated with 1 μg/mL of GA for 24 h; proximity ligation; Duolink Reagents Red; MDA-MB-468 cells fixed and permeabilized with cold methanol; cells treated with 1 μg/mL of GA for 24 h.
For assay [3] the target is unchanged. In words: proximity ligation; Duolink Reagents Red; MDA-MB-468 cells fixed and permeabilized with cold methanol; cells treated with 10 μM Q18 (8 h), 10 μM 6-AN (24 h) or HBSS (48 h).
In assay [4] the target is Pichia-expressed human AHR (human) (UniProt P35869). Briefly: native gel or EMSA; AHR (2 μL), ARNT (0.5 μL) and p23 (1 μL) in HEDG with 10 μM βNF, then dIdC (3 μg) and DRE-IRD700 (0.5 pmol); AHR/ARNT/DRE gel shift complex; both purified.
Assay [5] addresses aryl hydrocarbon receptor (human (endogenous in MDA-MB-468)) (UniProt P35869). In words: co-IP; 2 mg whole cell lysates of MDA-MB-468 cells treated with 10 μM Q18 (0, 4, 8 h) or DMSO or 10 μM 6-AN (24 h); anti-AHR SA-210 or anti-LAMP2 antibody on protein G magnetic beads, overnight at 4 °C; washed with HEDG containing 150 mM NaCl and 0.05–0.1% Tween-20; Western blot.

In the case of “aryl hydrocarbon receptor (from UniProt P35869 11-848)”, the results for the binding result in assay [1], in assay [2] and in assay [3] were “binds”, “no binding” and “binds”, respectively.
“Pichia-expressed human aryl hydrocarbon receptor nuclear translocator (from UniProt P27540 1-789)”: the binding entry in assay [4] is recorded as “binds”.
As to GAPDH (from UniProt P04406 1-335), the binding result in assay [3] is listed as “binds”.
Turning to “heat shock cognate protein 70 (from UniProt P11142 1-646)”, the binding result in assay [5] is “binds”.

For the origin of these results see PMC7914569.
